In patent US6153587A (Laboratoire THERAMEX, priority 1996, dated 2000):

Tests used:
[1] = solid-phase peptide synthesis; details: whole synthesis
[2] = general procedure: Fmoc solid-phase peptide synthesis; Rink resin; details: whole synthesis
[3] = scale of the general procedure 1.2 mmole (Example 2, resin split into approximately 6 parts)

AcDNal-DpClPhe-DPal-Ser-Tyr-SPL-Leu-Arg-Pro-DAlaNH2
isolated mass [1]: 21 mg
final HPLC purity [1, 3]: 98.8%
isolated yield [1, 3]: approximate yield 5%

AcDNal-DpCtPhe-DPal-Ser-Tyr-SPL-Npg-IprLys-Pro-DAlaNH2
isolated mass [1]: 85 mg
final HPLC purity [1, 3]: 97.5%
isolated yield [1, 3]: approximative yield 20%

pGlu-His-Trp-Ser-Tyr-SPL-Tle-Arg-Pro-NEt
isolated mass [1]: 6 mg
final HPLC purity [1, 3]: 97.8%
isolated yield [1, 3]: approximate yield 3%

pGlu-His-Trp-Ser-Tyr-SPL-Cha-Arg-Pro-NEt
isolated mass [1]: 16 mg
final HPLC purity [1, 3]: 96%
isolated yield [1, 3]: approximate yield 14%

pGlu-His-Trp-MeSer-Tyr-SPL-Leu-Arg-Pro-Gly-NH2
isolated mass [1]: 15 mg
final HPLC purity [1, 3]: 96.3%
isolated yield [1, 3]: approximate yield 4%

pGlu-His-pClPhe-Ser-Tyr-SPL-Leu-Arg-Pro-Gly-NH2
isolated mass [1]: 50 mg
final HPLC purity [1, 3]: 97.2%
isolated yield [1, 3]: approximate yield 19%

AcDNal-DpClPhe-DBal-Ser-Tyr-SPL-Leu-Arg-Pr-DAlaNH2
isolated mass [1]: 13 mg
final HPLC purity [1, 3]: 96.4%
isolated yield [1, 3]: approximate yield 3%

pGlu-His-Trp-Ser-Tyr-SPL-Nle-Arg-Pro-NEt
isolated mass [1]: 44 mg
final HPLC purity [1, 3]: 98.3%
isolated yield [1, 3]: approximate yield 20%

pGlu-His-Nal-Ser-Tyr-SPL-Leu-Arg-Pro-Gly-NH2
isolated mass [1]: 68 mg
final HPLC purity [1, 3]: 99.2%
isolated yield [1, 3]: approximate yield 25%

AcDNal-DpClPhe-DPal-Ser-NicLys-SPL-Npg-IprLys-Pro-DAlaNH2
isolated mass [1]: 97 mg
final HPLC purity [1, 3]: 97.5%
isolated yield [1, 3]: 33% yield

AcDNal-DpCtPhe-DPal-Ser-IprLys-SPL-Npg-Arg-Pro-DAlaNH2
isolated mass [1]: 78 mg
final HPLC purity [1, 3]: 98.8%
isolated yield [1, 3]: approximative yield 30%

pGlu-His-Nal-Ser-Tyr-SPL-Leu-Arg-Pro-NEt
isolated mass [1]: 21 mg
final HPLC purity [1, 3]: 95.2%
isolated yield [1, 3]: approximate yield 28%

AcSar-His-Nal-Ser-Tyr-SPL-Leu-Arg-Pro-NEt
isolated mass [1]: 36 mg
final HPLC purity [1, 3]: 95.1%
isolated yield [1, 3]: approximate yield 15%

pGlu-His-Trp-Ser-Tyr-SPL-Leu-Arg-Pro-Gly-NH2
crude mass [1]: 532 mg
isolated mass [1]: 56 mg
final HPLC purity [1, 3]: 96.4%
isolated yield [1, 3]: approximate yield 11%

pGlu-His-Trp-Ser-Tyr-SPL-Npg-Arg-Pro-NEt
isolated mass [1]: 53 mg
final HPLC purity [1, 3]: 98.1%
isolated yield [1, 3]: approximate yield 15%

pGlu-His-Trp-Ser-Tyr-SPL-Hol-Arg-Pro-NEt
isolated mass [1]: 26 mg
final HPLC purity [1, 3]: 97.5%
isolated yield [1, 3]: approximate yield 10%

AcDNal-DpClPhe-DTrp-Ser-Tyr-SPL-Leu-Arg-Prx)-DAlaNH2
isolated mass [1]: 6 mg
final HPLC purity [1, 3]: 98%
isolated yield [1, 3]: approximate yield 2%

pGlu-His-Trp-Ser-Tyr-SPL-Leu-Arg-Pro-NEt
isolated mass [1]: 19 mg
final HPLC purity [1, 3]: 95.2%
isolated yield [1, 3]: approximate yield 8%

AcDNal-DpClPhe-DPal-Ser-NicLys-SPL-Npg-Arg-Pro-DAlaNH2
isolated mass [1]: 73 mg
final HPLC purity [1, 3]: 99%
isolated yield [1, 3]: 20% yield

AcSar-His-Trp-Ser-Tyr-SPL-Leu-Arg-Pro-Gly-NH2
isolated mass ([1]; scale 1.2 mmole): 57 mg
final HPLC purity [1, 3]: 97.1%
isolated yield [1, 3]: approximate yield 39%

pGlu-His-Trp-DSer-Tyr-SPL-Leu-Arg-Pro-Gly-NH2
isolated mass [1]: 75 mg
final HPLC purity [1, 3]: 98.6%
isolated yield [1, 3]: approximate yield 27%

pGlu-His-INal-Ser-Tyr-SPL-Leu-Arg-Pro-NEt
isolated mass [1]: 33 mg
final HPLC purity [1, 3]: 97.9%
isolated yield [1, 3]: approximate yield 20%

AcSar-His-Trp-Ser-Tyr-SPL-Leu-Arg-Pro-NEt
isolated mass [1]: 24 mg
final HPLC purity [1, 3]: 96.1%
isolated yield [1, 3]: approximate yield 22%

pGlu-His-Trp-Ser(OBzl)-Tyr-SPL-Leu-Arg-Pro-Gly-NH2
crude mass [1]: 328 mg
isolated mass [1]: 82 mg
final HPLC purity [1, 3]: 96.0%
isolated yield [1, 3]: 31% yield

pGlu-DPhe-Trp-Ser-Tyr-SPL-Leu-Arg-Pro-DAlaNH2
isolated mass [1]: 27 mg
final HPLC purity [1, 3]: 99%
isolated yield [1, 3]: approximate yield 6%

pGlu-His-Trp-Ser-Tyr-SPL-Leu-Arg-Pro-AzaGly-NH2
crude mass [2]: 0.265 g
isolated mass [1]: 44 mg
crude yield [1, 3]: 50% yield
final HPLC purity [1, 3]: 98.2%
isolated yield [1, 3]: 17% yield

AcDNal-DpClPhe-DPal-Ser-Tyr-SPL-Npg-Arg-Pro-DAlaNH2
isolated mass [1]: 10 mg
final HPLC purity [1, 3]: 93.1%
isolated yield [1, 3]: 4% yield

pGlu-DPhe-Trp-Ser-Tyr-SPL-Leu-Arg-Pro-Gly-NH2
isolated mass [1]: 25 mg
final HPLC purity [1, 3]: 97.3%
isolated yield [1, 3]: approximate yield 5%

pGlu-His-1Nal-Ser-Tyr-SPL-Leu-Arg-Pro-Gly-NH2
isolated mass [1]: 54 mg
final HPLC purity [1, 3]: 95.3%
isolated yield [1, 3]: approximate yield 13%
